No constants are given. Whether binding was seen depends on the method and setting. Some entries that bind do so weakly or less than the wild type.

The chains behind the UniProt entries cited, without tags or fusion partners. Where a name states a change or a piece, a line headed by the entry shows the natural chain unless it says otherwise. Residues count along the entry.
UniProt Q07954, residues 806-1183: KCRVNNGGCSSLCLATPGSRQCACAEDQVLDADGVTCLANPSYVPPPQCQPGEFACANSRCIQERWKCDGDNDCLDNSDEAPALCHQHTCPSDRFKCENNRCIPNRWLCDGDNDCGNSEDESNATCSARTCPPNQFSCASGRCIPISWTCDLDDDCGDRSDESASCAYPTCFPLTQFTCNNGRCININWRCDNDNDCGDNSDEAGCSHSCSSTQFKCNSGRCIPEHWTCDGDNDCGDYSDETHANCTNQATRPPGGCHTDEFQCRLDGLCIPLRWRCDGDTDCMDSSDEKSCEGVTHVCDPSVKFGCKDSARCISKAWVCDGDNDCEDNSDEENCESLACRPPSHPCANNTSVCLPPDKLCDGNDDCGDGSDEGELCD
UniProt P30533: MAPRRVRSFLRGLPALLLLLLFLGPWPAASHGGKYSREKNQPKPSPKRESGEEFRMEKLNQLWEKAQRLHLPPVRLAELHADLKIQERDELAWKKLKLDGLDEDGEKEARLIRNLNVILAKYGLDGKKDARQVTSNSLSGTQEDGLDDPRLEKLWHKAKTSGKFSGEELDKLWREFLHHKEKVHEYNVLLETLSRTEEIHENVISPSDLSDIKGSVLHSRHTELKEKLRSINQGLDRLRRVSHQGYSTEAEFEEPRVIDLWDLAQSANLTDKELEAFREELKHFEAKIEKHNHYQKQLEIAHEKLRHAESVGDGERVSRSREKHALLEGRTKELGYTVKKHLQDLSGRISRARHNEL

In experiment [1] the target is sLRP2, the entire second ligand-binding domain of human LRP1 (recombinant) (human) (UniProt Q07954). The experiment in a line: ligand blot, sLRP2 spotted on membrane, detection with anti-RAP antibody.
For experiment [2] the target is unchanged. Kind of experiment: dot blot overlay on immobilised human LRP binding domain 2, detection with anti-RAP antibody.

For “receptor-associated protein (RAP) (from UniProt P30533 35-357) (ligand)”, the binding result in experiment [1] and in experiment [2] was “binds” each time.

Source of the values: patent US20100028370A1.
